## Results of single-concentration screens

The chains behind the UniProt entries cited, without tags or fusion partners. Residues count along the entry.
UniProt A4I591, 1-473: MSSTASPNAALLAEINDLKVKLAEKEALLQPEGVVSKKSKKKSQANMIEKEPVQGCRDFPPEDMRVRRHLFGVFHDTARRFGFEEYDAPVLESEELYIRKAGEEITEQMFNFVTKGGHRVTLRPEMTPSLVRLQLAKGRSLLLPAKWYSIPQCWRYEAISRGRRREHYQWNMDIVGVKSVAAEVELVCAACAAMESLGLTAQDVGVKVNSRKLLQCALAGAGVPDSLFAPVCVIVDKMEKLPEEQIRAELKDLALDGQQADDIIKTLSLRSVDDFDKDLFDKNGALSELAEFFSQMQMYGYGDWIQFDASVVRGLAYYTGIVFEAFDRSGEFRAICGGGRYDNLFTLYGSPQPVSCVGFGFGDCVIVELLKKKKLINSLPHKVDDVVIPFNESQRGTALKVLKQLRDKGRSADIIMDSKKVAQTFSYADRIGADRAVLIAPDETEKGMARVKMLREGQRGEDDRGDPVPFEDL

Source: ChEMBL document CHEMBL3988442, “University of Dundee, Small-Polar-MMV Screening Library” (2021).

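Histidine-tRNA ligase, Leishmania infantum (UniProt A4I591). Enzyme assay of histidyl-tRNA synthetase; the read-out is not stated. Tested at 30 µM. The record gives no direction; compounds that gave an IC50 in retests scored well above the rest, so higher reads as stronger inhibition. The assay is labelled LdHisRS but filed under L. infantum. Of about 69,000 compounds tested this way, about 410 (0.6%) reached 50% or more in at least one test.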

Values are the deposited “Percent Effect”, in %. The record does not define 0% and 100%; most values in the screen are far below 50% and negative numbers occur (in some assays of this library far below -100). This is an unselected part of the compounds tested.

Compound	effect
CN(Cc1ccsc1)C(=O)Nc1ccc(N(C)C)nc1	6.78%
CC1(c2ccccc2)CCC(=O)N(CC2(N3CCOCC3)CCCC2)C1 (centres unmarked)	9.917%
NCCCn1nc(C(F)(F)F)c2c1CCC2	18.56%
CCN(Cc1ccc2c(c1)OCCO2)C(=O)c1ccc(C)[nH]c1=O	19.64%
Cn1cncc1C(=O)N1C[C@@H]2CCN(c3cnccn3)C[C@@H]2C1	22%
Cc1cnccc1CN1CC[C@H](Oc2cccc(F)c2)[C@@](C)(O)C1	21.74%
Cc1nc(-c2ccc(CC(=O)N3CCNC(=O)C3)cc2)cs1	-9.091%
CC(=O)N1CCC(Cc2nccnc2-c2ccnn2C)CC1	18.57%
Cc1cccc(C(C(=O)NCc2csc(-c3ncccn3)n2)N(C)C)c1 (centres unmarked)	7.042%
COc1ccc(C2CCCN2C(=O)NCCCn2ccnc2)cc1 (centres unmarked)	6.481%
CN(C)S(=O)(=O)N1CC(c2nc(N)ncc2-c2ccc(F)cc2)C1	21.28%
Cc1noc(C)c1CN1CCC[C@]2(C[C@@H](Oc3ccccn3)CO2)C1	11%
Cc1cnn(CC(C)NCc2ccc(OCc3cscn3)cc2)c1 (centres unmarked)	13.04%
CC(C)(CO)CCCNC(=O)N1CCc2c(F)ccc(F)c2C1	2.74%
c1ncn(CC2CCCCN2Cc2csc(-c3ccsc3)n2)n1 (centres unmarked)	-1.695%
CC(C)(C)C(=O)NC(c1nccs1)C1CCN(CC2CCCCC2)CC1 (centres unmarked)	7.042%
CN(Cc1ncnn1C)C(=O)CCn1ccc2ccccc21	-6.349%
Cc1cc(C(=O)N2CCN(C)CC2)nn1CC(=O)NCc1ccccn1	23.66%
O=C(CSc1ccc2c(c1)OCCO2)NS(=O)(=O)c1ccccc1F	0%
Cn1ccc(C(=O)Nc2cc(F)ccc2OCC2CCCO2)cc1=O (centres unmarked)	7.692%
COc1ncc(NS(=O)(=O)c2ccc(F)cc2F)cn1	12.82%
N#Cc1ccc(C(=O)N2C[C@H](OCc3cccnc3)[C@H]3COC[C@H]32)cc1	6.944%
Cc1nn(C)cc1-c1ccnc(N(C)Cc2ccc(F)cc2)n1	16.13%
CN1CCN(C(=O)c2ccc3c(c2)[nH]c(=O)n3C2CCCC2)CC1	0%
CC(=O)NC(C)C(=O)NCc1ccc(N2CCNC(=O)C2)cc1 (centres unmarked)	10.43%
CC(C)c1cc2c(O)nc(CSCC(=O)NCc3ccncc3)nc2s1	8.333%
COCCNC(=O)c1sccc1N(C)S(=O)(=O)c1ccc(Cl)cc1	5%
CN1C(=O)C(c2ccccc2)CC12CCN(CCN)CC2 (centres unmarked)	17.74%
CC(C)c1noc(CS(=O)(=O)CC(=O)NCCOc2ccccc2)n1	12%
Cc1nc(C)c(C(=O)NCCNc2cc(N3CCCC3)ncn2)s1	-9.333%
CCOCC1CN(CCN(C)C)Cc2cnn(CC3CCCC3)c21 (centres unmarked)	29.03%
N#Cc1ccc(F)c(CNC(=O)NCCC(=O)NC2CCCC2)c1	4%
CC(C)OCCOCc1cccc(NC(=O)NCc2ccccn2)c1	10.38%
COCCc1noc(CN(C)c2cc(C)ncn2)n1	8.772%
CCN(Cc1nc2c(cnn2C)c(=O)[nH]1)Cc1ccco1	15.65%
CO[C@@H]1CCN(C(=O)c2ccsc2)[C@@H]2CN(CC3CC3)C[C@@H]21	17.31%
CSC(CNS(N)(=O)=O)c1cccc(Cl)c1 (centres unmarked)	2.632%
CNc1ncccc1C(=O)N1CCCC2(C1)C(=O)N(C)c1ccccc12 (centres unmarked)	25%
NC(=O)CCCNC(=O)COc1ccccc1C(F)(F)F	14.67%
Cc1cc(C(=O)N(C)S(=O)(=O)C(C)C)ccc1F	10.53%
CNc1nc(CNC(=O)Nc2cccc(OC)c2)cs1	7.339%
Cc1cc2c(=O)n(CCOCCO)cnc2s1	7.5%
Cc1nnc(CN(CCc2ccccc2)C2CCN(C)CC2)s1	17.2%
Cc1noc(C(C)NC(=O)[C@@H](C)NC(=O)OC(C)(C)C)n1 (some centres unmarked)	20.88%
Cc1nc(CN2CCCC(NCc3sccc3C)C2)no1 (centres unmarked)	12.17%
Cc1ccc(CN2CCOCC2)cc1NC(=O)c1ccsc1	17.17%
Cc1nc(C(C)C)ncc1C(=O)N1CCc2c(nc(N(C)C)[nH]c2=O)C1	7.692%
CC(C)N1CCc2c(C(=O)N3CCOCC3)nn(C)c2C1	10%
CCc1nc(C2CCCN2CCn2cncn2)no1 (centres unmarked)	12.5%
CN(CCCNC(=O)NCc1ccncc1)CC(F)(F)F	6.452%
CCn1ccnc1CN1CCC(Oc2ccccc2F)(C(=O)O)CC1	4.959%
CCOCC1CN(C(=O)Cc2ccsc2)Cc2ccnn2C1 (centres unmarked)	-205.9%
CN1CC=C(c2noc(CCC(=O)N3CCOCC3)n2)CC1	18.42%
CCN(Cc1ccc(N(C)C)cc1)S(=O)(=O)c1cc(Br)ccc1OC	10.36%
CC(=O)N1CCCN(c2nccc(-c3c(C)nn(C)c3C)n2)CC1	18.09%
COc1cc(CNCC(O)c2ccc(C)cc2)cc2c1OCCO2 (centres unmarked)	24.62%
COCCC(=O)N1CC[C@H]2C(=O)N(c3ccsc3)CCO[C@H]2C1	-2%
N#Cc1ccc(CN2CCCC2Cn2cccn2)cc1 (centres unmarked)	21.82%
O=C(NCC1CCCCC1)NC1CCCc2c1cnn2CCO (centres unmarked)	18.75%
Cc1cc(NC(=O)CCN2CCCCC2Cn2cncn2)no1 (centres unmarked)	12.28%
c1ccc(-c2cc(CN3C[C@@H]4CC[C@H](C3)N(CC3CCC3)C4)on2)cc1	51.67%
CN(C)CCNC(=O)[C@H]1C[C@@H]2CN(C(=O)NCc3ccccc3)C[C@H]1O2	1.818%
Cc1nc(C2CCCN2C(=O)Cc2ccc(F)cc2)ncc1C(N)=O (centres unmarked)	2%
CN1CCN2CCN(Cc3cnc(NCc4ccccc4)nc3)CC2C1 (centres unmarked)	15.05%
CC(C)OCCC1CCCCN1S(=O)(=O)c1cnn(C)c1 (centres unmarked)	10%
CN(Cc1nccn1C)c1ccc(-c2nccn2C)nn1	-5%
Cc1nc(Cn2c(=O)cnc3ccccc32)n(C)n1	15.58%
CC(C)(C)n1cc(C(=O)NCCCn2ccnc2)c2cccnc21	17.14%
CCc1cnc(N2CC[C@H]3[C@@H]2CCC(=O)N3c2cccnc2)nc1	15.32%
Cc1cc(O)nc(C2CCCNC2)n1 (centres unmarked)	7.092%
COc1ccc(S(=O)(=O)NCC(C)(O)c2cccs2)cc1Cl (centres unmarked)	9.402%
Nc1ccnc(N2C[C@H](O)[C@@H](N3CCN(c4ccccn4)CC3)C2)n1	10.75%
CNc1cc(C2CCN2c2ncccn2)nc(C)n1 (centres unmarked)	15.71%
Cc1nc(CN2CC(Cc3ccccc3)CC2=O)no1 (centres unmarked)	18.07%
CCOC(=O)[C@@H]1[C@@H](c2ccccc2)CN2CCN(S(C)(=O)=O)C[C@H]12	-4.082%
COCC(O)CN1CCC(NC(=O)c2cscc2C)CC1 (centres unmarked)	21.13%
Cc1ncoc1C(=O)N1CCCC(C(=O)c2cccc(OC(C)C)c2)C1 (centres unmarked)	0%
CCN(CC)Cc1cc(=O)n2c(n1)CN(C(=O)c1ccc[nH]1)CCC2	13.86%

Once more, the final 8:

| Compound | effect |
|---|---|
| `COc1ccc(S(=O)(=O)NCC(C)(O)c2cccs2)cc1Cl` (centres unmarked) | 9.402% |
| `Nc1ccnc(N2C[C@H](O)[C@@H](N3CCN(c4ccccn4)CC3)C2)n1` | 10.75% |
| `CNc1cc(C2CCN2c2ncccn2)nc(C)n1` (centres unmarked) | 15.71% |
| `Cc1nc(CN2CC(Cc3ccccc3)CC2=O)no1` (centres unmarked) | 18.07% |
| `CCOC(=O)[C@@H]1[C@@H](c2ccccc2)CN2CCN(S(C)(=O)=O)C[C@H]12` | -4.082% |
| `COCC(O)CN1CCC(NC(=O)c2cscc2C)CC1` (centres unmarked) | 21.13% |
| `Cc1ncoc1C(=O)N1CCCC(C(=O)c2cccc(OC(C)C)c2)C1` (centres unmarked) | 0% |
| `CCN(CC)Cc1cc(=O)n2c(n1)CN(C(=O)c1ccc[nH]1)CCC2` | 13.86% |